PubChem BioAssay AID1259424, University of Nebraska Medical Center | 2018
Purpose: 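Seek colon cancer survival genes behaving like KSR1, using a six-gene signature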 (primary screen). Cell system: human HCT116 colon cancer cells. Reagents: siRNA pool against human genes, 50 nM. Measured: 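Six signature mRNAs by branched-DNA multiplex assay, scaled to two housekeeping genes and non-targeting median, log2; matched to mean KSR1 knockdown profile by Pearson correlation and euclidean distance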. Scale: mean correlation with KSR1 profile: higher = expression change more like KSR1 knockdown.
In all, the deposit lists about 14,000 reagents; shown is an unselected part. 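Higher correlation or smaller distance means closer resemblance to KSR1 loss; control wells, including KSR1 knockdowns, recur on many plates.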 Some reagents were tested in more than one well and are listed for each. Further read-outs or replicates are left out here. Reagent sequences are not shown. Not given: the time to read-out.

Silencing of EBNA1BP2 came out at: mean correlation with KSR1 profile -0.638.
Depletion of USP1 resulted in: mean correlation with KSR1 profile -0.36.
Silencing of ZNF655 gave: mean correlation with KSR1 profile -0.515.
For LARP1 the deposit lists mean correlation with KSR1 profile 0.159.
With knock-down of NOMO1 the results were mean correlation with KSR1 profile -0.349.
GLCE gave mean correlation with KSR1 profile -0.498.
Knock-down of HTR1A resulted in: mean correlation with KSR1 profile 0.183.
Against CDK5R1 the deposit lists mean correlation with KSR1 profile -0.275.
Depletion of EMD gave: mean correlation with KSR1 profile 0.211.
Depletion of DENR gave: mean correlation with KSR1 profile -0.526.
For COG3, the entry reads mean correlation with KSR1 profile 0.483.
Knock-down of KAT8 resulted in: mean correlation with KSR1 profile 0.433.
SALL2 showed mean correlation with KSR1 profile -0.37.
Knock-down of NRBF2 came out at: mean correlation with KSR1 profile -0.292.
Depletion of TJP1 gave: mean correlation with KSR1 profile -0.671.
ESF1 scored mean correlation with KSR1 profile 0.358.
SPOUT1 scored mean correlation with KSR1 profile -0.802.

In a second layout: 2 of the entries above
Target gene,mean correlation with KSR1 profile
DENR,-0.526
COG3,0.483

Further results follow.
Silencing of ANKRD13C resulted in: mean correlation with KSR1 profile 0.638.
Silencing of FGF4 resulted in: mean correlation with KSR1 profile -0.241.
SLC9A3 showed mean correlation with KSR1 profile -0.499.
Knock-down of ABCA11P came out at: mean correlation with KSR1 profile 0.296.
NOL8 showed mean correlation with KSR1 profile 0.297.
After knock-down of HSF4, the screen gave mean correlation with KSR1 profile 0.226.
Against MAS1L, the values are mean correlation with KSR1 profile 0.849.
With knock-down of DNALI1 the results were mean correlation with KSR1 profile -0.132.
MCPH1 gave mean correlation with KSR1 profile -0.13.
Silencing of SARS2 came out at: mean correlation with KSR1 profile -0.0645.
Against TNPO2, the values are mean correlation with KSR1 profile 0.466.
Silencing of TNPO2 gave: mean correlation with KSR1 profile 0.238.
